Source: PubChem BioAssay AID686943 (Drosophila RNAi Screening Center, 2013)

Assay: 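Fly genes whose loss alters ERK activation after insulin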 (primary screen)
Cells: Drosophila S2R+ haemocyte-like cells expressing YFP-tagged ERK (Rolled)
Reagents: long dsRNA against Drosophila genes
Challenge: insulin stimulation versus unstimulated cells; dose and duration not given
Measurement: 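Antibody staining for doubly phosphorylated ERK divided by ERK-YFP signal, as plate z-scores, in insulin-treated and untreated cells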
Direction: replicate 1, z-score of dpERK with insulin: higher = more active ERK per ERK-YFP after insulin
In all, the deposit lists about 23,000 reagents; shown is an unselected part of those with a known target gene and a result. 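Extra replicates exist only for a retested subset of genes; insulin dose and duration not given; both raised and lowered dpERK matter.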 Further read-outs or replicates are left out here. The record does not give: the amount of reagent, the time to read-out.

CG17801 [DRSC15273] | replicate 1, z-score of dpERK with insulin: -0.21
CG13766 [DRSC02271] | replicate 1, z-score of dpERK with insulin: 0.34
CG14642 [DRSC12228] | replicate 1, z-score of dpERK with insulin: -0.08
Wee1 [DRSC03635] | replicate 1, z-score of dpERK with insulin: 0.35
blow [DRSC07586] | replicate 1, z-score of dpERK with insulin: -0.17
Rpn9 [DRSC16840] | replicate 1, z-score of dpERK with insulin: -3.54
dati [DRSC17128] | replicate 1, z-score of dpERK with insulin: -0.91
dati [DRSC17140] | replicate 1, z-score of dpERK with insulin: -0.87
dati [DRSC17153] | replicate 1, z-score of dpERK with insulin: 0.38
Pgm1 [DRSC10490] | replicate 1, z-score of dpERK with insulin: 0.73
Obp57e [DRSC05891] | replicate 1, z-score of dpERK with insulin: -0.69
tRNA:Leu-CAA-2-3 [DRSC13633] | replicate 1, z-score of dpERK with insulin: 0.34

Records above whose target name begins with D or d:
dati [DRSC17128] | replicate 1, z-score of dpERK with insulin: -0.91
dati [DRSC17140] | replicate 1, z-score of dpERK with insulin: -0.87
dati [DRSC17153] | replicate 1, z-score of dpERK with insulin: 0.38

Additional results follow:
CG12917 [DRSC06231] | replicate 1, z-score of dpERK with insulin: 0.22
d4 [DRSC04881] | replicate 1, z-score of dpERK with insulin: 0.45
d4 [DRSC22674] | replicate 1, z-score of dpERK with insulin: -0.15
CG1463 [DRSC19603] | replicate 1, z-score of dpERK with insulin: 0.58
mRRF2 [DRSC16143] | replicate 1, z-score of dpERK with insulin: 0.43
Wdr24 [DRSC14151] | replicate 1, z-score of dpERK with insulin: -0.07
Iml1 [DRSC08249] | replicate 1, z-score of dpERK with insulin: -1
tj [DRSC02011] | replicate 1, z-score of dpERK with insulin: 0.22
eEF1alpha1 [DRSC07421] | replicate 1, z-score of dpERK with insulin: 1.38
